# At least one compound was matched to its structure with a doubt left. Some entries repeat one wording, which the source may state once for all of them. *1 amine or outer side, *2 acyl side, *3 side chain or, on linkers, in order; H or OH if unused. Where a SMILES comes first, the peptide text is derived from it. Bridges are numbered along the chain shown (N, C = ends). The star is where a group is joined. C20 diacid = O=C(O)CCCCCCCCCCCCCCCCCCC(=O)*; γGlu = O=C(O)[C@H](CCC(=O)[*:2])N[*:1]; AEEA = NCCOCCOCC(=O)O
# System: food intake
# Assay: Pharmacological Assay (I) - efficacy testing on appetite, ad libitum fed rat model
# Format: in vivo, Sprague Dawley (SD) rats
# Conditions: 30 nmol/kg vs vehicle, ad libitum fed rats, n=5-7, 0-48 hours
# In short: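 SD rats, 200-250 g, individually housed on reversed light/dark cycle, ad libitum food and water; single 0.01-3 mg/kg dose ip, po or sc just before lights off, 5-8 rats per dose plus vehicle group. Food intake recorded hourly for 7 h, then at 24 h and sometimes 48 h; Grubbs outliers excluded.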
row,SMILES,food intake over a period of 48 hours
1,"CC[C@H](C)[C@H](NC(=O)[C@@H]1CCCN1C(=O)CNC(=O)[C@H](Cc1ccccc1)NC(=O)[C@H](CC(N)=O)NC(=O)[C@H](CC(N)=O)NC(=O)[C@H](CO)NC(=O)[C@H](CO)NC(=O)[C@H](Cc1c[nH]cn1)NC(=O)[C@H](CCCNC(=N)N)NC(=O)[C@H](CC(C)C)NC(=O)[C@H](Cc1ccccc1)NC(=O)[C@H](CC(N)=O)NC(=O)[C@H](C)NC(=O)[C@H](CC(C)C)NC(=O)[C@H](CCCNC(=N)N)NC(=O)[C@H](CCC(N)=O)NC(=O)[C@@H](NC(=O)[C@H](C)NC(=O)[C@@H]1CSSC[C@H](NC(=O)[C@H](CCCCN)NC(=O)[C@H](CCCNC(=N)N)NC(=O)COCCOCCNC(=O)CC[C@H](NC(=O)CCCCCCCCCCCCCCCCCCC(=O)O)C(=O)O)C(=O)N[C@@H](CC(N)=O)C(=O)N[C@@H]([C@@H](C)O)C(=O)N[C@@H](C)C(=O)N[C@@H]([C@@H](C)O)C(=O)N1)[C@@H](C)O)C(=O)N[C@@H](CC(C)C)C(=O)N1CCC[C@H]1C(=O)N1CCC[C@H]1C(=O)N[C@H](C(=O)N[C@@H](CC(N)=O)C(=O)N[C@H](C(=O)NCC(=O)N[C@@H](CO)C(=O)N[C@@H](CC(N)=O)C(=O)N[C@H](C(=O)N[C@@H](Cc1ccc(O)cc1)C(N)=O)[C@@H](C)O)C(C)C)[C@@H](C)O [Example 23, N-alpha-[2-(2-{2-[4-(S)-Carboxy-4-(19-carboxynonadecanoylamino)butyrylamino]ethoxy}ethoxy)acetyl]-Arg-[Arg17]-pramlintide] ({C20 diacid-γGlu-AEEA}-RKCNTATCATQRLANFLRHSSNNFGPILPPTNVGSNTY-NH2; disulfide 3-8)",effectively reducing food intake
2,"CC[C@H](C)[C@H](NC(=O)[C@@H]1CCCN1C(=O)CNC(=O)[C@H](Cc1ccccc1)NC(=O)[C@H](CC(N)=O)NC(=O)[C@H](CC(N)=O)NC(=O)[C@H](CO)NC(=O)[C@H](CO)NC(=O)[C@H](Cc1c[nH]cn1)NC(=O)[C@H](CO)NC(=O)[C@H](CC(C)C)NC(=O)[C@H](Cc1ccccc1)NC(=O)[C@H](CC(N)=O)NC(=O)[C@H](C)NC(=O)[C@H](CC(C)C)NC(=O)[C@H](CCCNC(=N)N)NC(=O)[C@H](CCC(N)=O)NC(=O)[C@@H](NC(=O)[C@H](C)NC(=O)[C@@H]1CSSC[C@H](NC(=O)[C@H](CCCCN)NC(=O)[C@H](CCCNC(=N)N)NC(=O)CC[C@H](NC(=O)CCCCCCCCCCCCCCCCCCC(=O)O)C(=O)O)C(=O)N[C@@H](CC(N)=O)C(=O)N[C@@H]([C@@H](C)O)C(=O)N[C@@H](C)C(=O)N[C@@H]([C@@H](C)O)C(=O)N1)[C@@H](C)O)C(=O)N[C@@H](CC(C)C)C(=O)N1CCC[C@H]1C(=O)N1CCC[C@H]1C(=O)N[C@H](C(=O)N[C@@H](CC(N)=O)C(=O)N[C@H](C(=O)NCC(=O)N[C@@H](CO)C(=O)N[C@@H](CC(N)=O)C(=O)N[C@H](C(=O)N[C@@H](Cc1ccc(O)cc1)C(N)=O)[C@@H](C)O)C(C)C)[C@@H](C)O [Example 20, N-alpha-[(S)-4-Carboxy-4-(19-carboxynonadecanoylamino)butyryl]-Arg-[Ser17]-pramlintide] ({C20 diacid-γGlu}-RKCNTATCATQRLANFLSHSSNNFGPILPPTNVGSNTY-NH2; disulfide 3-8)",effectively reducing food intake
3,"CC[C@H](C)[C@H](NC(=O)[C@@H]1CCCN1C(=O)CNC(=O)[C@H](Cc1ccccc1)NC(=O)[C@H](CC(N)=O)NC(=O)[C@H](CC(N)=O)NC(=O)[C@H](CO)NC(=O)[C@H](CO)NC(=O)[C@H](Cc1c[nH]cn1)NC(=O)[C@H](Cc1c[nH]cn1)NC(=O)[C@H](CC(C)C)NC(=O)[C@H](Cc1ccccc1)NC(=O)[C@H](CC(N)=O)NC(=O)[C@H](C)NC(=O)[C@H](CC(C)C)NC(=O)[C@H](CCCNC(=N)N)NC(=O)[C@H](CCC(N)=O)NC(=O)[C@@H](NC(=O)[C@H](C)NC(=O)[C@@H]1CSSC[C@H](NC(=O)[C@H](Cc2c[nH]cn2)NC(=O)CC[C@H](NC(=O)CCCCCCCCCCCCCCCCCCC(=O)O)C(=O)O)C(=O)N[C@@H](CC(N)=O)C(=O)N[C@@H]([C@@H](C)O)C(=O)N[C@@H](C)C(=O)N[C@@H]([C@@H](C)O)C(=O)N1)[C@@H](C)O)C(=O)N[C@@H](CC(C)C)C(=O)N1CCC[C@H]1C(=O)N1CCC[C@H]1C(=O)N[C@H](C(=O)N[C@@H](CC(N)=O)C(=O)N[C@H](C(=O)NCC(=O)N[C@@H](CO)C(=O)N[C@@H](CC(N)=O)C(=O)N[C@H](C(=O)N[C@@H](Cc1ccc(O)cc1)C(N)=O)[C@@H](C)O)C(C)C)[C@@H](C)O [Example 29, N-alpha-[(S)-4-Carboxy-4-(19-carboxynonadecanoylamino)butyryl]-[His1,His17]-pramlintide] ({C20 diacid-γGlu}-HCNTATCATQRLANFLHHSSNNFGPILPPTNVGSNTY-NH2; disulfide 2-7)",effectively reducing food intake
4,"CC[C@H](C)[C@H](NC(=O)[C@@H]1CCCN1C(=O)CNC(=O)[C@H](Cc1ccccc1)NC(=O)[C@H](CC(N)=O)NC(=O)[C@H](CCC(N)=O)NC(=O)[C@H](CO)NC(=O)[C@H](CO)NC(=O)[C@H](Cc1c[nH]cn1)NC(=O)[C@H](Cc1c[nH]cn1)NC(=O)[C@H](CC(C)C)NC(=O)[C@H](Cc1ccccc1)NC(=O)[C@H](CC(N)=O)NC(=O)[C@H](C)NC(=O)[C@H](CC(C)C)NC(=O)[C@H](CCCNC(=N)N)NC(=O)[C@H](CCC(N)=O)NC(=O)[C@@H](NC(=O)[C@H](C)NC(=O)[C@@H]1CSSC[C@H](NC(=O)[C@H](CCCNC(=N)N)NC(=O)[C@H](Cc2c[nH]cn2)NC(=O)[C@H](Cc2c[nH]cn2)NC(=O)[C@H](CCC(=O)O)NC(=O)CC[C@H](NC(=O)CCCCCCCCCCCCCCCCCCC(=O)O)C(=O)O)C(=O)N[C@@H](CC(N)=O)C(=O)N[C@@H]([C@@H](C)O)C(=O)N[C@@H](C)C(=O)N[C@@H]([C@@H](C)O)C(=O)N1)[C@@H](C)O)C(=O)N[C@@H](CC(C)C)C(=O)N1CCC[C@H]1C(=O)N1CCC[C@H]1C(=O)N[C@H](C(=O)N[C@@H](CC(N)=O)C(=O)N[C@H](C(=O)NCC(=O)N[C@@H](CO)C(=O)N[C@@H](CC(N)=O)C(=O)N[C@H](C(=O)N[C@@H](Cc1ccc(O)cc1)C(N)=O)[C@@H](C)O)C(C)C)[C@@H](C)O [Example 63, N-alpha-[(S)-4-Carboxy-4-(19-carboxynonadecanoylamino)butyryl]-GluHis-His-[Arg1,His17,Gln21]-pramlintide] ({C20 diacid-γGlu}-EHHRCNTATCATQRLANFLHHSSQNFGPILPPTNVGSNTY-NH2; disulfide 5-10)",effectively reducing food intake
